At least one structure is not confirmed: it was looked up by name or label, or the drawing left a doubt.
Assay: Dissolution profile in biorelevant media (FaSSIF / FaSSGF), paddle apparatus
Format: physicochemical
Details: FaSSIF (fenofibrate, nifedipine, nimodipine, nabumetone) or FaSSGF (ibuprofen, gemfibrozil); 900 ml, 37° C., 75 rpm
Protocol: Dissolution profile: The drug release profiles of the above formulations and the reference products (TRICOR ® 48 mg Fenofibrated tablets and Buplex® 200 mg Ibuprofen tablets) was tested in biorelevant dissolution media; using Fasted State Simulated Intestinal Fluid (FaSSIF) for Tricor® and Fasted State Simulated Gastric Fluid (FaSSGF) for Buplex®. USP […] (Paddle) was used.
Media temperature: 37° C.;
Paddle rotation speed: 75 rpm;
The method used to measure the dissolution rate is as described under ‘dissolution profile’ in the previous example. […] All other conditions remained the same.

CC(C)OC(=O)C(C)(C)Oc1ccc(C(=O)c2ccc(Cl)cc2)cc1 [Fenofibrate, 2-(4-(4-chlorobenzoyl)phenoxy)-2-methyl-propionate]
% drug dissolved / rate and extent of dissolution versus marketed product: 1:1.8 ratio of Maisine: Kolliphor proved optimal
